Assay results: the supplement of paper PMC8166895
Where a name gives a salt, the structure may show the parent alone. Some of the results follow. Most values lie at the level of the controls, where differences are scatter.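 Melting temperature was read by differential scanning fluorimetry in a single-replicate pilot screen of a library of approved drugs and clinical or known-target compounds. Compounds raising the melting point by at least 2 °C were the top stabilizing hits, and negative shifts mean destabilization.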

Tested on: SARS-CoV-2 main protease (Mpro, nsp5)
Assay: thermal shift ΔTm of Mpro relative to plate average Tm; higher = stronger thermal stabilization of Mpro (binding)
Settings: 10 µM; protein concentration 1 µM

First: CCOC(=O)Nc1ccc(NCc2ccc(F)cc2)nc1N [Flupirtine maleate]
Second: O=C(NO)c1ccc(CC(=O)N(CCO)c2ccccc2)cc1
The “thermal shift ΔTm of Mpro” value of the first is higher: 0.267 °C for the first, -0.0394 °C for the second.

Compared with `COCC(=O)Nc1c(I)c(C(=O)NCC(O)CO)c(I)c(C(=O)N(C)CC(O)CO)c1I` (stereo not drawn) [Iopromide], `O=C(NOCC(O)CO)c1cc(Br)c(F)c(F)c1Nc1ccc(I)cc1F` (stereo not drawn) is lower in “thermal shift ΔTm of Mpro” value: 0.138 °C for the first, 0.0183 °C for the second.

Going from `O=C(/C=C/N1C[C@H]2C[C@@H]1CN2c1ccccn1)c1ccccc1O` to `O=C(c1ccccc1)c1ccc2n1CCC2C(=O)O` (stereo not drawn) [Ketorolac], the “thermal shift ΔTm of Mpro” value rises from -0.181 °C to -0.0435 °C.

Going from `COc1ccc(C(CN(C)C)C2(O)CCCCC2)cc1` (stereo not drawn) [Venlafaxine] to `CN(C)CC(c1ccc(O)cc1)C1(O)CCCCC1` (stereo not drawn) [Desvenlafaxine], the “thermal shift ΔTm of Mpro” value falls from 0.242 °C to -0.11 °C.

Compared with `Cc1cc(O)c(-c2ccc([C@@H](C)CN(C)C)cc2)c2c1[nH]c(=O)c1sccc12`, `COc1cc(Oc2ccnc3cc(OC)c(OC)cc23)ccc1NC(=O)NC(C)c1nccs1` (stereo not drawn) is lower in “thermal shift ΔTm of Mpro” value: -0.132 °C for the first, -0.182 °C for the second.

First: C[C@H](CCC(=O)O)[C@H]1CC[C@H]2[C@@H]3CC[C@@H]4C[C@H](O)CC[C@]4(C)[C@H]3CC[C@]12C [Lithocholic acid]
Second: COc1c(N2CCNC(C)C2)c(F)cc2c(=O)c(C(=O)O)cn(C3CC3)c12 (stereo not drawn) [Gatifloxacin]
The “thermal shift ΔTm of Mpro” value of the first is lower: -0.48 °C for the first, 0.0263 °C for the second.

First: N[C@@H](CSCCCO)C(=O)O [Fudosteine]
Second: CC(=O)SCC(Cc1ccccc1)C(=O)NCC(=O)OCc1ccccc1 (stereo not drawn) [Racecadotril]
The “thermal shift ΔTm of Mpro” value of the first is higher: 0.176 °C for the first, 0.0891 °C for the second.

Compared with `O=C(Oc1ccc([N+](=O)[O-])cc1)N1CCN(Cc2cccc(Oc3ccccc3)c2)CC1`, `Cc1cc(C)nc(NC(=S)N2CCN(Cc3ccc(C(F)(F)F)cc3)CC2)c1` is lower in “thermal shift ΔTm of Mpro” value: 0.0465 °C for the first, -0.202 °C for the second.

Going from `COC(=O)C1=C(C)NC(C)=C(C(=O)OC(C)C)C1c1cccc2nonc12` (stereo not drawn) [Isradipine] to `CCN(CC)CCCC(C)Nc1nc(C)cc(Nc2ccc3nc(C)cc(N)c3c2)n1` (stereo not drawn), the “thermal shift ΔTm of Mpro” value falls from 0.0658 °C to -0.178 °C.

First: O=C1OC(OC(=O)c2cccnc2Nc2cccc(C(F)(F)F)c2)c2ccccc21 (stereo not drawn) [Talniflumate]
Second: O=C(Nc1ccccc1Br)N[C@@H]1CCN(c2ccc(C(F)(F)F)cn2)C1
The “thermal shift ΔTm of Mpro” value of the first is lower: 0.00733 °C for the first, 0.0887 °C for the second.

Going from `CCNC(=O)[C@@H]1CCCN1C(=O)[C@H](CCCN=C(N)N)NC(=O)[C@H](CC(C)C)NC(=O)[C@@H](C)NC(=O)[C@H](Cc1ccc(O)cc1)NC(=O)[C@H](CO)NC(=O)[C@H](Cc1c[nH]c2ccccc12)NC(=O)[C@H](Cc1cnc[nH]1)NC(=O)[C@@H]1CCC(=O)N1` [Alarelin] to `NC(=O)[C@@H]1CCCN1C(=O)[C@H](Cc1c[nH]cn1)NC(=O)[C@@H]1CCC(=O)N1` [Protirelin], the “thermal shift ΔTm of Mpro” value rises from 0.263 °C to 0.304 °C.

First: Cn1c(Nc2ccc(C(F)(F)F)cc2)nc2cc(Oc3ccnc(-c4ncc(C(F)(F)F)[nH]4)c3)ccc21
Second: CN(C)C/C=C/C(=O)Nc1cc2c(Nc3ccc(F)c(Cl)c3)ncnc2cc1O[C@H]1CCOC1 [Afatinib (BIBW2992)]
The “thermal shift ΔTm of Mpro” value of the first is higher: 0.654 °C for the first, 0.13 °C for the second.

Going from `Cc1ccccc1C(C(=O)NC1CCCCC1)N(C(=O)Cn1cnc2ccccc21)c1cccc(F)c1` (stereo not drawn) to `O=C(Nc1ccccc1)Nc1ccc(-c2ccc(C(=O)[C@@H]3CCC[C@H]3C(=O)O)cc2)cc1`, the “thermal shift ΔTm of Mpro” value rises from -0.299 °C to 0.743 °C.

Compared with `COc1ccc(S(=O)(=O)N(CCO)c2ccccc2CN(C)C/C=C/c2ccc(Cl)cc2)cc1` [KN-93 Phosphate], `NC(=N\CCCCCC/N=C(N)/N=C(\N)Nc1ccc(Cl)cc1)/N=C(\N)Nc1ccc(Cl)cc1` [Chlorhexidine Acetate] is higher in “thermal shift ΔTm of Mpro” value: -0.328 °C for the first, 0.231 °C for the second.

First: Cc1ccc2nc(N)[nH]c(=O)c2c1Sc1ccncc1 [Nolatrexed]
Second: CC(C)c1c(-c2ccccc2)nc2c(C#N)c[nH]n2c1=O
The “thermal shift ΔTm of Mpro” value of the first is higher: -0.0305 °C for the first, -0.11 °C for the second.

First: CN(C)CC(c1ccc(O)cc1)C1(O)CCCCC1 (stereo not drawn) [Desvenlafaxine Succinate]
Second: CN(C)C/C=C/C(=O)Nc1cc2c(Nc3ccc(F)c(Cl)c3)ncnc2cc1O[C@H]1CCOC1 [Afatinib (BIBW2992) Dimaleate]
The “thermal shift ΔTm of Mpro” value of the first is lower: -0.189 °C for the first, 0.288 °C for the second.

Compared with `O=C(O)COc1ccc(Br)cc1/C=C1\SC(=S)N(Cc2cccnc2)C1=O` [Skp2 Inhibitor C1], `O=C(C[S+]([O-])Cc1ccco1)NC/C=C\COc1cc(CN2CCCCC2)ccn1` (stereo not drawn) [Lafutidine] is higher in “thermal shift ΔTm of Mpro” value: -0.0658 °C for the first, 0.0981 °C for the second.

Going from `C#CCC(Cc1cnc2nc(N)nc(N)c2n1)c1ccc(C(=O)N[C@@H](CCC(=O)O)C(=O)O)cc1` (stereo partly drawn) [Pralatrexate] to `OC[C@@H](O)[C@@H](O)[C@@H](O)CO` [Ribitol], the “thermal shift ΔTm of Mpro” value falls from 0.593 °C to -0.00813 °C.

Going from `FC(F)(F)COCC(F)(F)F` [Fluoroethyl] to `CCN[C@@H]1C[C@H](N)[C@@H](O[C@H]2OC(CN)=CC[C@H]2N)[C@H](O)[C@H]1O[C@H]1OC[C@](C)(O)[C@H](NC)[C@H]1O` [Netilmicin sulfate], the “thermal shift ΔTm of Mpro” value falls from 0.195 °C to 0.13 °C.
